Laboratory results published in PubChem BioAssay AID540275 (National Center for Advancing Translational Sciences (NCATS), 2011).
Hit rate of the full screen: of about 320,000 compounds, about 620 (0.19%) were called active. This list was built around the results that the source calls inconclusive (neither active nor inactive); the mix of calls is not that of the screen. No stated cut-off is given here; in the data, active means activation above about 80%; inconclusive means between about 30% and that limit; inactive means weaker than that.

Protein sequences, listed by entry. Tags and fused reporters are not part of them.
UniProt Q8NER1, whole entry, looked up: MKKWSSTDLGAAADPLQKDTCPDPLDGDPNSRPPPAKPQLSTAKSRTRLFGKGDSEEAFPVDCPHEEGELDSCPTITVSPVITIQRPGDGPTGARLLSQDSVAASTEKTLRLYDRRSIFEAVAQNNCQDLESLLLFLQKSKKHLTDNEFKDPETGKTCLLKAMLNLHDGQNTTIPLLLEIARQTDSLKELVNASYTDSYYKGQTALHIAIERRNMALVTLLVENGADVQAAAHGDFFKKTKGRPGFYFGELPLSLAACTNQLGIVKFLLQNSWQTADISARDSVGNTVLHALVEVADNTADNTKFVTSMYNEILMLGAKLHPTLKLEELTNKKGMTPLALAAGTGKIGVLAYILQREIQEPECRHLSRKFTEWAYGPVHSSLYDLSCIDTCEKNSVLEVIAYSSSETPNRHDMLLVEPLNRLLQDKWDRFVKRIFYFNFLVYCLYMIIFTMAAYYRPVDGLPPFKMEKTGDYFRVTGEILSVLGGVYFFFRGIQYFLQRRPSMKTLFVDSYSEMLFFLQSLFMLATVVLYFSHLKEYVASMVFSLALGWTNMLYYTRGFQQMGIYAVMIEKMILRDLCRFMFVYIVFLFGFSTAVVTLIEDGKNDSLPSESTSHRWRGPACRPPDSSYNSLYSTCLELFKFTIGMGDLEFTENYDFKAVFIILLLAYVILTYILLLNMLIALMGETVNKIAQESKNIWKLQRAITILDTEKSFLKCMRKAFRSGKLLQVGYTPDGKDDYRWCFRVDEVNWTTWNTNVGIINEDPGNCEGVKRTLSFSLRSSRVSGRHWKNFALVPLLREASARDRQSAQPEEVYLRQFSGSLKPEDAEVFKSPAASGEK

Molecular target: Transient receptor potential cation channel subfamily V member 1 (Homo sapiens) (UniProt Q8NER1)
Experiment: HTS Assay for Compounds that Act as Agonists of the Vanilloid Receptor 1; further: 0% is about no effect
Settings: TRPV1-expressing cells, Fluo-8 calcium influx, agonist mode; at 8.33 µM, stronger effect = higher value
How it was run: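 TRPV1-expressing cells were cultured overnight at 35.5C and loaded with Fluo-8 calcium dye for 40 to 90 min at room temperature. After a 10 s baseline, compound was added and calcium influx was read kinetically for 3 min (ex 480/em 520 nm).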

Compound | activation
COc1cccc(Cn2cc(N)cn2)c1 | inactive: 9.02%
COc1cc(OC)c(OC)cc1CN1CCCC(C(=O)c2sccc2C)C1 (stereo not given) | inactive: -5.29%
O=C(COc1ccccc1Cl)Nc1ccc(S(=O)(=O)N2CCOCC2)cc1 | inconclusive: 32.9%
CN(C)c1ccc(NC(=O)COC(=O)Cn2nnc3ccccc32)cc1 | inactive: -1.46%
CCOCC(=O)Nc1c(C(=O)N2CCN(c3ncccn3)CC2)oc2ccccc12 | inconclusive: 34.4%
OCCCNc1nc(-c2ccccc2)c2cc(Br)ccc2n1 | inconclusive: 53.3%
CC(C)C(=O)Nc1nc(-c2ccc(S(=O)(=O)N3CCOCC3)cc2)cs1 | inactive: -0.45%
CN(N)c1nc(-c2ccccc2)cc(-c2ccccc2)n1 | inconclusive: 43%
Cc1ccc(OCC(=O)Nc2ccc(C(N)=O)cc2)cc1 | inconclusive: 65.4%
COCCN1C=C(C(=O)OC)C(c2ccc(Cl)cc2)C(C(=O)OC)=C1 | inactive: -6.2%
COc1ccccc1-c1ccc(/C=C2\C=CC(=O)O2)o1 | inconclusive: 50.9%
O=C(CC1c2ccccc2Oc2ccccc21)Nc1ccccc1C(F)(F)F | inconclusive: 36.9%
O=C(Nc1cccc(-c2cc3ccccc3oc2=O)c1)c1ccc(Br)o1 | inconclusive: 30.1%
O=C(Nc1ccc(N2CCCCC2)cc1)c1ccccc1 | inconclusive: 65.5%
Cc1c(C(=O)NN)sc(=S)n1C | inactive: -8.52%
S=c1[nH]nc(-c2ccncc2)n1/N=C/c1cn(-c2ccccc2)nc1-c1ccccc1 | inactive: 3.84%
Cc1cc(C)cc(-n2c(C)cc(/C=N/NC(=O)c3ccncc3)c2C)c1 | inconclusive: 40%
O=C(CCCn1c(=S)[nH]c2cc3c(cc2c1=O)OCO3)N1CCN(c2ncccn2)CC1 | inactive: -1.95%
NC(=O)CC(NC(=O)c1ccccc1)c1ccc(N2CCC(Br)CC2)c([N+](=O)[O-])c1 (stereo not given) | inactive: 1.98%
Cc1ccc(-c2csc(=S)n2CC(=O)OCC(=O)NCc2ccc(F)cc2)cc1 | inconclusive: 34.8%
O=C(CSc1nc2ccccc2[nH]1)Nc1ccc(F)c(F)c1 | inconclusive: 45.4%
CCCCNC(=S)N/N=C/C1=CCC2CC1C2(C)C (stereo not given) | inconclusive: 35.4%
O=C(N/N=C/c1cccnc1)c1sc2ccccc2c1Cl | inconclusive: 51.1%

Compound | activation
Cc1ccc([N+](=O)[O-])cc1NC(=O)Nc1cccc(F)c1 | inactive: 7.29%
O=C(OCCN1CCN(C2=NS(=O)(=O)c3ccccc32)CC1)c1cccc(Br)c1 | inactive: 0.813%
OCCCc1nc2ccccc2n1CCOc1ccccc1 | inconclusive: 38.5%
Cc1ccc(C)c(-n2cc(CNCCc3cnccn3)c(-c3ccccc3)n2)c1 | inconclusive: 31.8%
O=C(Cc1ccccc1Cl)Nc1cccc(S(=O)(=O)N2CCCCCC2)c1 | inconclusive: 41%
O=C(O)c1ccc(N/N=C/c2cccc3cccnc23)cc1 | inactive: 3.48%
CC(C)(C)SCCNC(=O)CN(c1ccccc1)S(=O)(=O)c1ccccc1 | inconclusive: 39.5%
O=C(NCCOC12CC3CC(CC(C3)C1)C2)c1cccc(Br)c1 | inconclusive: 48.9%
Cc1ccc(C2C(C#N)=C(N)Oc3cc(N)ccc32)cc1 (stereo not given) | inactive: -4.7%
O=[N+]([O-])c1cc(O)c2ncccc2c1 | inactive: -1.62%
Cc1ccc(NC(=O)c2c(C)nc3ccccn23)cc1C | inconclusive: 49.7%
O=C(OCC(=O)N1CCCC1)c1c2c(nc3ccccc13)CCCCC2 | inconclusive: 45.6%
O=C(NC1CC1)C1=NOC(CNc2ncc(C(F)(F)F)cc2Cl)C1 (stereo not given) | active: 80%
CC(=O)Nc1ccc(C(=O)OCC(=O)Nc2ccccc2Sc2ccccc2)cc1 | inconclusive: 34.4%
COc1ccc(N2C(=O)N3[C@H](c4ccc(Cl)cc4)[C@@H]4C(=O)N(C5CCCCC5)C(=O)[C@@H]4[C@]3(C)C2=O)cc1 | inactive: -0.546%
CC(C)OC(=O)Cn1nc(C(c2ccccc2)c2ccccc2)oc1=O | inconclusive: 36.6%
CCOc1ccc(C(=O)N2CCN(CCc3ccccc3)CC2)cc1OCC | inactive: 2.61%
O=C(CSc1nnc(CNc2ccccc2)o1)c1ccc2c(c1)OCCO2 | inactive: 0.666%
CC(C)(C)NC(=O)NC(=O)CSc1ccc(S(=O)(=O)N2CCCCC2)cn1 | inconclusive: 42.1%
Oc1ccc(/C=N/n2cc(-c3ccccc3)[nH]c2=S)cc1 | inactive: 1.03%
CCCCc1c(C)[nH]c(C(=O)OCC)c1C | inconclusive: 41%
COc1ccccc1CNC(=O)CSCc1cnn(-c2ccccc2)c1-n1cccc1 | inconclusive: 39.3%
Cc1nn(C)c(C)c1CN(Cc1nc(-c2cc(F)ccc2F)oc1C)C1CC1 | inconclusive: 30.7%

Compound | activation
Cc1ccc(NNC(=O)C(O)(c2cccc(C(F)(F)F)c2)c2cccc(C(F)(F)F)c2)cc1 | inactive: 20.5%
CCn1c2ccccc2c2cc(NC(=O)c3ccc(Br)o3)ccc21 | inconclusive: 42%
O=C(CCCc1ccccc1)Nc1ccc(Br)cc1F | inconclusive: 30.2%
N#C/C(=C/c1ccc2c(c1)OCO2)C(=O)NCCc1c[nH]c2ccccc12 | inactive: 11.1%
Cc1ccc(-n2nc3c(=O)n(C(C)C(=O)NCc4ccco4)nc(C)c3c2C)cc1 (stereo not given) | inactive: -0.134%
COc1cc(OC)cc(C(=O)Nc2ccc(-n3cnnn3)c(C)c2)c1 | inconclusive: 74.9%
Cc1nonc1NC(=O)CSc1nc(C23CC4CC(CC(C4)C2)C3)nc2ccccc12 | inconclusive: 44%
CC1CC(C)(C)NC(=S)N1CC(=O)N1CCN(Cc2ccccc2)CC1 (stereo not given) | inconclusive: 30.2%
Fc1ccc(CSc2nc3ccccc3[nH]2)c2ccccc12 | inconclusive: 52.9%
CC(=O)Nc1nc(C)c(-c2csc(Nc3cccc(C(C)=O)c3)n2)s1 | inactive: 0.203%
Cc1ccccc1NC(=O)c1ccc2c(c1)C(=O)N(CCC(C)C)C2=O | inconclusive: 33.3%
CC(C)[C@H](CO)N(Cc1cccc(F)c1)c1nc(Nc2cccc(Cl)c2)c2ncn(C(C)C)c2n1 | inconclusive: 52.5%
CC(=O)Nc1ccccc1NC(=O)C/C(C)=N/NC(=O)c1ccccn1 | inconclusive: 49.1%
CC1Oc2ccccc2C=C1/C=N/NC(=O)c1ccccc1 (stereo not given) | inconclusive: 45.8%
CCc1cccc(C)c1N1C(=O)CN(Cc2ccccc2)C1=S | inconclusive: 49.8%
COc1ccc([C@H]2[C@H](C(=O)OC(C)(C)C)N3N=Cc4ccccc4C3C23C(=O)c2ccccc2C3=O)cc1OC (stereo not given in full) | inconclusive: 36.9%
Cc1ccc(CC(=O)NCCCc2ccccc2)cc1 | active: 80.3%
CCOC(=O)c1sc(NC(=O)Cc2c(F)cccc2Cl)nc1C | inconclusive: 38%
Cc1ccc2nccc(C(=O)N3CCCC(Nc4ccc(F)cc4)C3)c2c1 (stereo not given) | inconclusive: 62.6%
O=C(COC(=O)CC12CC3CC(CC(C3)C1)C2)Nc1cccnc1Cl | inconclusive: 52.3%
O=C(CCS(=O)(=O)c1ccc(Cl)cc1)NCCC1=CCCCC1 | inconclusive: 49.6%
O=C1S/C(=C/c2ccc(N3CCOCC3)o2)C(=O)N1Cc1ccc(F)cc1 | inconclusive: 38.9%
Cc1ccc(C(=O)Nc2ccc(S(=O)(=O)N3CCN(C)CC3)cc2)cc1 | inconclusive: 31.6%

Part of the list above, set out differently:
Compound,activation
Cc1ccc(OCC(=O)Nc2ccc(C(N)=O)cc2)cc1,inconclusive: 65.4%
Cc1cc(C)cc(-n2c(C)cc(/C=N/NC(=O)c3ccncc3)c2C)c1,inconclusive: 40%
Cc1ccc(C)c(-n2cc(CNCCc3cnccn3)c(-c3ccccc3)n2)c1,inconclusive: 31.8%
CC1Oc2ccccc2C=C1/C=N/NC(=O)c1ccccc1 (stereo not given),inconclusive: 45.8%
CCOC(=O)c1sc(NC(=O)Cc2c(F)cccc2Cl)nc1C,inconclusive: 38%

Next part:

Compound | activation
CCN(CC)c1ccc(NC(=O)c2cc3ccccc3o2)c(C)c1 | active: 82.9%
COc1ccc(CNC(=O)CN(C)Cc2ccccc2F)cc1OC | inconclusive: 64.8%
CCOC(=O)C1=C(C)N2C(=C(C#N)[C@@H]1c1ccc(C(=O)OC)cc1)SC[C@@]2(O)C(C)(C)C | inconclusive: 41.2%
S=C(NCC1COc2ccccc2O1)Nc1ccccc1 (stereo not given) | inconclusive: 57.9%
Cc1cc2cc(CNC(=S)NCc3ccccc3)ccc2n1C | inconclusive: 38.1%
CC(C)(C)c1cc(C(=O)C[n+]2ccc(C(=O)NCCCO)cc2)cc(C(C)(C)C)c1O | inconclusive: 30.9%
O=S(=O)(Cc1cc(N2CCOCC2)nc(-c2ccccn2)n1)c1ccccc1 | inactive: 0.198%
CCOc1cc(/C=C/C(=O)Nc2ccc(C(=O)NCCN(CC)CC)cc2)ccc1OCC(C)C | inconclusive: 67.4%
Cc1ccc(C(=O)NCCc2cc3ccc(C)c(C)c3[nH]c2=O)cc1[N+](=O)[O-] | inactive: -2.77%
CCC1CCCCN1CCCNC(=O)CCC(=O)N1CCOc2ccccc21 (stereo not given) | inactive: -11.7%
Oc1ccccc1C1=Nc2ncnn2C(c2ccc(F)cc2)C1 (stereo not given) | inconclusive: 71.5%
CN1CCc2ccc(NC(=O)c3ccc(C(F)(F)F)cc3)cc2C1 | inconclusive: 45.2%
Cc1ccc(NC(=O)c2ccc3ncsc3c2)cc1S(=O)(=O)N(C)C | inconclusive: 75.3%
O=C(NC1=NCCS1)c1cc(-c2cccs2)nc2ccccc12 | inconclusive: 49.7%
COc1ccc2nc(N)sc2c1 | inactive: 1.29%
Cc1ccc(/C=C/C(=O)OCC(=O)NCc2ccccc2)o1 | inconclusive: 30.9%
O=C(Nc1ccccc1)NC1CCCCC1 | inconclusive: 45.6%
Clc1ccc(-c2cnc(Oc3ccccc3)nc2)cc1 | inconclusive: 39.5%
CC1(C)Cc2nc(-c3ccccc3)nc(SCC(O)CO)c2CO1 (stereo not given) | inconclusive: 52.8%
CCCNC(=O)CCc1c(C)nc2c(c(C)nn2-c2ccc(C)cc2)c1C | inconclusive: 69.4%
COC(=O)CN(c1nc(C)c(Br)c(OC)n1)S(=O)(=O)c1ccccc1 | inconclusive: 35.1%
